{"source": "PubChem BioAssay AID1259275 | Sanger Institute | 2017", "purpose": "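Knock-downs that cut viability on their own or combined with BYL719, cetuximab or trametinib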 (primary screen)", "cell system": "COLO320HSR human colorectal cancer cells", "reagents": "siRNA pool against human genes", "conditions": "anchor drug added one day after transfection: BYL719 at 1 µM, cetuximab at 5 µg/ml or trametinib at 10 nM; DMSO as vehicle arm", "measured": "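Viability averaged over replicates as a fraction of the non-targeting pool, a robust z-score for knock-down alone, and synergy scores with BYL719 (1 µM), cetuximab (5 µg/ml) or trametinib (10 nM)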", "scale": "robust z-score, siRNA alone: higher = more viable cells; strongly negative means essential", "active means": "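a gene is called essential when its robust z-score without drug falls below -3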", "calls": "active = essential (siRNA alone); inactive = no change (siRNA alone)", "note": "In all, the deposit lists 794 reagents; this is an unselected part. Of all reagents, 13 (1.6%) were called active. 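Calls mark knock-downs lethal by themselves, not drug synergy; drugs went in a day after transfection, with DMSO as vehicle.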 Unmarked entries are inactive. Further read-outs or replicates are left out here. Not given: the amount of reagent, the time to read-out."}
{"target gene": "RPS6KA1 (ribosomal protein S6 kinase A1)", "robust z-score, siRNA alone": -1.87}
{"target gene": "ATR (ATR checkpoint kinase)", "robust z-score, siRNA alone": 0.403}
{"target gene": "MAP3K3 (mitogen-activated protein kinase kinase kinase 3)", "robust z-score, siRNA alone": "-4.22 (active)"}
{"target gene": "LRRK1 (leucine rich repeat kinase 1)", "robust z-score, siRNA alone": 0.358}
{"target gene": "DNMT3A (DNA methyltransferase 3 alpha)", "robust z-score, siRNA alone": -0.244}
{"target gene": "GRK4 (G protein-coupled receptor kinase 4)", "robust z-score, siRNA alone": 0.251}
{"target gene": "PI4K2A (phosphatidylinositol 4-kinase type 2 alpha)", "robust z-score, siRNA alone": -0.0942}
{"target gene": "HIPK2 (homeodomain interacting protein kinase 2)", "robust z-score, siRNA alone": 0.726}
{"target gene": "GRK6 (G protein-coupled receptor kinase 6)", "robust z-score, siRNA alone": -0.826}
{"target gene": "PKIA (cAMP-dependent protein kinase inhibitor alpha)", "robust z-score, siRNA alone": 0.108}
{"target gene": "ACVR1B (activin A receptor type 1B)", "robust z-score, siRNA alone": -0.94}
{"target gene": "TYK2 (tyrosine kinase 2)", "robust z-score, siRNA alone": 0.726}
{"target gene": "PDK4 (pyruvate dehydrogenase kinase 4)", "robust z-score, siRNA alone": 0.726}
{"target gene": "ERN1 (endoplasmic reticulum to nucleus signaling 1)", "robust z-score, siRNA alone": 0.726}
{"target gene": "EPHA1 (EPH receptor A1)", "robust z-score, siRNA alone": 0.726}
{"target gene": "MED12 (mediator complex subunit 12)", "robust z-score, siRNA alone": -1.97}
{"target gene": "CDC7 (cell division cycle 7)", "robust z-score, siRNA alone": 0.0892}
{"target gene": "MAPK13 (mitogen-activated protein kinase 13)", "robust z-score, siRNA alone": 0.57}
{"target gene": "MATK (megakaryocyte-associated tyrosine kinase)", "robust z-score, siRNA alone": -0.502}
